Source: PMC3160902
No constants are given. Whether binding was seen depends on the method and setting. Some binding calls cover weakened binding; strength is not graded here. Tags and fused reporters may be left off the sequences shown.

Chains of the proteins cited; added tags and fusions are not shown.
UniProt P49841: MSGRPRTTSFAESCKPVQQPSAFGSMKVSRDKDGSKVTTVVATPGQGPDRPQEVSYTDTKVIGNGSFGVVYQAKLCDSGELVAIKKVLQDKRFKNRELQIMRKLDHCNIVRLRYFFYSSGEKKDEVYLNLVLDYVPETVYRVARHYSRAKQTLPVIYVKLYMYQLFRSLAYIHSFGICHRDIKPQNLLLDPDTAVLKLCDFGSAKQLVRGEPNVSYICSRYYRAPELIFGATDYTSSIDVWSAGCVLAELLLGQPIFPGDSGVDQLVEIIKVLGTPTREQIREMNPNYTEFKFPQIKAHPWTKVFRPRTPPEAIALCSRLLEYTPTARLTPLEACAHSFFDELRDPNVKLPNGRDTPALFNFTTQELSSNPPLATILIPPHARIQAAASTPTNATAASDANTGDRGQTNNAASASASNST

Key:
[1] = biological target: T1, GST-LRP5C, unphosphorylated (human) (UniProt O75197); assay: pull-down; GST, GST-LRP5C or GST-LRP6C on glutathione beads, with recombinant GSK3 (250 units) and CKI (500 units) in the in vitro phosphorylation reaction with or without ATP; washed 4x in high salt (50 mM HEPES pH 7.4, 500 mM NaCl, 1.5 mM EDTA, 1% Triton X-100, 10% glycerol); retained GSK3 detected by immunoblot; both purified
T1 sequence: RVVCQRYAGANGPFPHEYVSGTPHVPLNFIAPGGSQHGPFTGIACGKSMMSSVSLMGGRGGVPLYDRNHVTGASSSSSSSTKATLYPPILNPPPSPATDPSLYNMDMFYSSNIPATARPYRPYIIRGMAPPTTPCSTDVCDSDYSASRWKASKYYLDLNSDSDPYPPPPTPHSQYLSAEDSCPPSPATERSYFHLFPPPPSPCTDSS

[2] = biological target: T2, GST-LRP6C, unphosphorylated (human) (UniProt O75581); assay: as above
T2 sequence: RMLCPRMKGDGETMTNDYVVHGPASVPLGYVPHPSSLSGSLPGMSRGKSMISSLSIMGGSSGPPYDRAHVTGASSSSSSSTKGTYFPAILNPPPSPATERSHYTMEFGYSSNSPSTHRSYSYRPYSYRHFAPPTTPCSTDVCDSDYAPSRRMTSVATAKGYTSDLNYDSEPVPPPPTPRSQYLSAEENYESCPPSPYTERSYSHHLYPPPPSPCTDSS

Substance: Recombinant GSK3 (GSK3β: P6040, NEB) (from UniProt P49841 1-420) (enzyme)
- binding [1]: binds
- binding [2]: binds
